At least one peptide structure holds a part that was inferred or is arguable (an end, a ring closure or a residue). Some compounds share one wording; it may come from a single statement. Some entries share one result that the patent states for a list of compounds. Where a SMILES comes first, the peptide text is derived from it. Where no end group is shown, it is not given here.
Assays:
[1] = test system: aortic allograft (plaque growth); experiment: Mouse aortic allograft transplant model; conditions: for plaque area / plaque growth: 15 μg dose immediately after transplant, vs saline; for intimal to medial thickness ratios: 15 μg, vs saline controls; for mononuclear cell counts, adventitial layer / invading mononuclear cell counts, intimal layer: 28 days follow up; for dose dependent reduction in plaque area (dose titration): 1.5, 15 and 150 μg/mouse
Method: To assess potential anti-inflammatory actions of individual serpin-derived peptides, peptide treatment was tested in mice after aortic allograft transplant at 4 weeks.
Ninety three mice had aortic allograft transplantation; 56 had PAI-1−/− (C57BL/6 background) donor to BALB/c (PAI-1+/+) recipient; and 37 had C57BL/6 wild type (PAI-1+/+) to BALB/c (PAI-1+/+) recipient. […] Due to the large number of surgeries required, both the PAI-1−/− and the WT mouse implants were utilized. The PAI-1−/− mice also allowed analysis of serpin response in a mouse transplant lacking a key thrombolysis regulating serpin, PAI-1. A 0.3 cm aortic segment isolated from the donor mouse was transplanted into the infra-renal aorta of recipient mice for aortic allograft studies (Table 1). The aortic transplant was anastomosed end-to-end using Sharpoint 11/0 nylon sutures (Surgical Specialties Corporation, Reiding, Mass., USA) under general anesthetic (6.5 mg/100 g body weight Somnotrol, MTC Pharmaceuticals, Cambridge, ON, Canada) given by intramuscular (i.m.) injection. WT C57BL/6 mice were purchased directly from Jackson Laboratories (Bar Harbor, Me., U.S.A.) and PAI-1−/− mice were bred in-house using mice supplied by Jackson Laboratories prior to surgery. Mice were followed for 4 weeks after transplant. […] Serpins or serpin-derived peptides were infused by intravenous (i.v.) tail vein injection immediately after transplant surgery, once aortic pulsation was again visible. At 4 weeks after aortic transplant, mice were euthanized with 0.05 ml euthanyl (Bimeda—MTC Animal Health Ltd., Cambridge, ON, Canada) by i.m. injection.
Donor aortic transplant implants and adjacent recipient aorta (0.5-0.6 cm long) were cut into two 0.25-0.3 cm pieces, fixed, paraffin embedded, and cut into 5 μm sections (two per aortic section, providing 4 sections for analysis of each transplanted mouse aorta) and stained with Haematoxylin and eosin for morphometric analysis. Areas of plaque, lumen and internal elastic lamina were measured by means of the Olympus application program using a Sony Power HAD3CCD color video camera attached to the microscope and calibrated to the microscope objective. The mean total cross sectional area of the intima, using sections with the largest detectable plaque area, was calculated for each aortic specimen. Numbers of invading mononuclear cells were counted per high powered field area at three sites in the intimal, medial and adventitial layers and the mean count for each arterial layer and specimen calculated.

The chains behind the UniProt entries cited, without tags or fusion partners. Residues count along the entry.
UniProt P05121, 24-402: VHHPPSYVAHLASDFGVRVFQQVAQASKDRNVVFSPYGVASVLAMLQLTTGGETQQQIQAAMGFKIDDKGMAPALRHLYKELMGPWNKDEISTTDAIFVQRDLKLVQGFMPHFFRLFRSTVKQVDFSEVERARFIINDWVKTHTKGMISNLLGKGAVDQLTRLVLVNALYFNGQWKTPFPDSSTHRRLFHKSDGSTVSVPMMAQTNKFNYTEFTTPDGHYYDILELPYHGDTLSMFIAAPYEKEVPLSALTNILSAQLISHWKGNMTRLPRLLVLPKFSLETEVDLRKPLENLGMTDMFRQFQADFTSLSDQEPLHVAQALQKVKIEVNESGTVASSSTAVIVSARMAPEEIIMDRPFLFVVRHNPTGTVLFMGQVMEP

[2] = test system: PMA activated THP-1 monocytes; experiment: Membrane fluidity cell activation assay; type: cell-based, human; conditions: peptides 500, 1000, 1500 ng/ml, Serp-1, NSP 500 ng/mL
Method: Cellular membrane fluidity is measured by pyrene dimer formation in the lipid bilayer and is used as a non-specific measure of cell activation (Zalai C V, et al. (2001) J Am Coll Cardiol 38: 1340-1347). Increases in THP-1 human monocyte membrane fluidity, after PMA activation, correlate with changes in cell activation, adhesion and motility. […] Serpin-derived peptide treatments paralleled in vivo activity with the one exception being the S-4 peptide. […] All serpin-derived peptides were tested at three doses 500, 1000 and 1500 ng/ml.
One million >95% viable THP-1, Jurkat T, or 5×10^5 HUVEC cells were labeled with BPP (0.8 μM) for studying core membrane fluidity, three hours prior to cell activation as previously described (Viswanathan K, et al. (2009) B. J Leukoc Biol 85: 418-426; Viswanathan K, et al. (2006) Thromb Haemost 95: 499-510; Zalai C V, et al. (2001) J Am Coll Cardiol 38: 1340-1347; Viswanathan K, et al. (2012) PLoS One 7: e44694; and Christov A, et al. (2001) Lasers Surg Med 28: 414-426). Cells were activated with PMA (1 μg/mL) for one hour, washed, resuspended in growth medium and treated with either Serp-1 (500 ng/mL), NSP (500 ng/mL), or individual serpin-derived peptides at (500, 1000 or 1500 ng/mL) for one hour. All assays were performed in triplicate. At the end of one hour, cells were washed to remove excess fluorescent probe and monomer, excimer fluorescence emission intensities were measured at 390 nm and 485 nm, respectively, during excitation at 320 nm using a fluorescent dual wavelength reader (Fluoroskan, Thermolab systems, Oy, USA). The ratio of excimer fluorescence to monomer fluorescence gives the measure of membrane fluidity.

MHV68 = experiment: Lethal MHV68 infection in IFNγR−/− mice, survival; type: in vivo, mouse
PAI-1 = target: T1, PAI-1 (Homo sapiens, UniProt P05121); experiment: Modulation of the inhibitory activity of PAI-1 towards uPA (chromogenic assay); type: biochemical
T1 construct: purchased Peprotech 140-04

[3] = test system: MCP-1 induced mononuclear cell migration and splenocyte responses; experiment: Mouse peritoneal cell migration assay after i.p. MCP-1 injection (ascites and spleen cells); type: in vivo; conditions: for CD11b+ mononuclear splenocyte cell isolates: spleen cells after i.p. MCP-1 injection
Jurkat T cells = experiment: RT-PCR signaling pathway gene expression analysis, Jurkat T cells; type: cell-based, human; conditions: vs saline; for CCL 20 gene expression / CCND-1 gene expression / MMP7 gene expression / interleukin-8 (IL-8) gene expression: data not shown
Description: (§1) Shared effects of Serp-1 and S-1, one of the active Serp-1 RCL peptide inhibitors for plaque growth, on transcription of representative genes in signaling pathways were studied in human Jurkat T cell (FIG. 5A and FIG. 5B) and THP-1 monocytes (FIGS. […]). […] Serp-1 and the Serp-1 peptides (serpin-derived peptides) S-1 and S-5 were compared to saline treated controls. Genes with two-fold change in expression with P-value less than 0.05 by Student's t-test were considered significant.
(§2) To further examine potential mechanisms of inhibitory activity for individual serpin peptides, THP-1 monocyte and Jurkat T cells in culture were treated with individual serpins or serpin-derived peptides with proven inhibitory activity for plaque growth in vivo (Viswanathan K, et al. (2009) B. J Leukoc Biol 85: 418-426; Viswanathan K, et al. (2006) Thromb Haemost 95: 499-510; Chen H, et al. (2013) Antimicrob Agents Chemother 57: 4114-4127; and Viswanathan K, et al. (2012) PLoS One 7: e44694). RT-PCR signaling pathway gene arrays (Sigma-Aldrich, St. Louis, Mo., USA) were analyzed in triplicate per cell type using predicted peptide or serpin treatment.

THP-1 monocytes = experiment: RT-PCR signaling pathway gene expression analysis, THP-1 monocytes; type: cell-based, human; conditions: THP-1 cells, vs saline
Description: as §1, §2

[4] = Example 5: 100 μg/kg i.p. daily for 30 days, vs saline (FIGS. 6, 7)
[5] = Example 9: 100 μg/kg i.p. daily for 10 days, vs saline (FIG. 11)

With ISRMAV [S-2, ISRMAV] the “plaque area / plaque growth” value ([1]; 4 weeks) was “did not significantly alter plaque growth”, the “IEx/IMon ratio (membrane fluidity)” value [2] was “did not significantly alter” and the survival (MHV68; [4]) was “did not improve survival”. For the same molecule, the survival (MHV68; [5]) was “showed no activity”.

GTTASSDTAITLIPR [S-7] was tested, and the “plaque area / plaque growth” value ([1]; 4 weeks) was “significantly reduced”, the “intimal to medial thickness ratios” value ([1]; 4 weeks) was “trend towards reduction” and the “mononuclear cell counts, adventitial layer” value [1] was “did not”. The “inhibition of PAI-1” value (PAI-1) was “trend toward greater inhibition of PAI-1 than S-2 and S-5”, the “IEx/IMon ratio (membrane fluidity)” value [2] was “inhibitory at the highest concentration” and the survival (MHV68; [4]) was “significantly prolonged survival”. The survival (MHV68; [5]) was “significant improvement in survival”.

EVNEEGSEAAAVSGM [S-6] was tested, and the plaque growth ([1]; 1.5 μg dose, 4 weeks) was “no effect on plaque growth”, the “plaque area / plaque growth” value ([1]; 4 weeks) was “neither reduced plaque growth” and the “inhibition of PAI-1” value (PAI-1) was “trend toward greater inhibition of PAI-1 than S-2 and S-5”. For the same molecule, the “splenocyte CD3+ CD4+ T cell isolates” value ([3]; 18 hours after i.p. MCP-1 injection) was “significantly reduced”, the “CD11b+ mononuclear splenocyte cell isolates” value [3] was “significantly reduced” and the “IEx/IMon ratio (membrane fluidity)” value [2] was “reduced IEx/IMon ratios at all doses”.

For IAISRM [S-4, IAISRM], the “plaque area / plaque growth” value ([1]; 4 weeks) was “did not significantly alter plaque growth”, the “invading mononuclear cell counts, intimal layer” value [1] was “reduced” and the “IEx/IMon ratio (membrane fluidity)” value [2] was “active at the two higher concentrations”.

With TAIVANKPF [S-5] the BCL-2 gene expression (Jurkat T cells) was “reduced”, the TCF7 gene expression (Jurkat T cells) was “did not” and the “CCL 20 gene expression” value (Jurkat T cells) was “reduced”. For the same molecule, the CCND-1 gene expression (Jurkat T cells) was “reduced”, the MMP7 gene expression (Jurkat T cells) was “reduced” and the “interleukin-8 (IL-8) gene expression” value (Jurkat T cells) was “reduced”. For the same molecule, the BRCA1 gene expression (THP-1 monocytes) was “inhibited BRCA1 significantly”, the “Selectin P ligand (CD162) gene expression” value (THP-1 monocytes) was “did not increase expression” and the “cyclin-dependent kinase inhibitor 1B (CDKN1; p27) gene expression” value (THP-1 monocytes) was “did not increase expression”. For the same molecule, the “glycogen synthase (GYS) gene expression” value (THP-1 monocytes) was “did not increase expression”, the “plaque area / plaque growth” value ([1]; 4 weeks) was “did not significantly alter plaque growth” and the “dose dependent reduction in plaque area (dose titration)” value [1] was “some inhibition of plaque growth, but only at a 10-fold higher dose infusion”. The “CD11b+ mononuclear splenocyte cell isolates” value [3] was “did not” and the “IEx/IMon ratio (membrane fluidity)” value [2] was “did not significantly alter”.

MAVLYPQVIVDHPFFFLIRNR [S-8] was tested, and the “plaque area / plaque growth” value ([1]; 4 weeks) was “significantly reduced”, the “intimal to medial thickness ratios” value ([1]; 4 weeks) was “trend towards reduction” and the “invading mononuclear cell counts, intimal layer” value [1] was “reduced”. For the same molecule, the “mononuclear cell counts, adventitial layer” value [1] was “reduced”, the “inhibition of PAI-1” value (PAI-1) was “trend toward greater inhibition of PAI-1 than S-2 and S-5” and the “IEx/IMon ratio (membrane fluidity)” value [2] was “inhibitory at the highest concentration”.

For IPRNAL [S-1, IPRNAL], the BCL-2 gene expression (Jurkat T cells) was “had no effect”, the TCF7 gene expression (Jurkat T cells) was “inhibited” and the “CCL 20 gene expression” value (Jurkat T cells) was “had no effect”. The CCND-1 gene expression (Jurkat T cells) was “had no effect”, the MMP7 gene expression (Jurkat T cells) was “had no effect” and the “interleukin-8 (IL-8) gene expression” value (Jurkat T cells) was “had no effect”. For the same molecule, the BRCA1 gene expression (THP-1 monocytes) was “induced”, the “Selectin P ligand (CD162) gene expression” value (THP-1 monocytes) was “induced” and the “cyclin-dependent kinase inhibitor 1B (CDKN1; p27) gene expression” value (THP-1 monocytes) was “induced”. For the same molecule, the “glycogen synthase (GYS) gene expression” value (THP-1 monocytes) was “induced”, the “increase of expression for four genes (CD162, GYS, CDKN1, BRCA1)” value (THP-1 monocytes) was “at least 2 fold” and the “plaque area / plaque growth” value ([1]; 4 weeks) was “significantly reduced”. For the same molecule, the “intimal to medial thickness ratios” value ([1]; 4 weeks) was “trend towards reduction”, the “dose dependent reduction in plaque area (dose titration)” value [1] was “significantly reduced plaque area at both doses” and the “mononuclear cell counts, adventitial layer” value [1] was “did not”. For the same molecule, the “plaque in C57BL/6 WT aortic allografts” value ([1]; C57BL/6 WT donor, 4 weeks) was “trend toward reduced plaque”, the “plaque area in PAI-1−/− aortic allografts” value ([1]; PAI-1−/− donor, 4 weeks) was “significant reductions in plaque area” and the “inhibition of PAI-1” value (PAI-1) was “trend toward greater inhibition of PAI-1 than S-2 and S-5”. For the same molecule, the “CD11b+ mononuclear splenocyte cell isolates” value [3] was “significantly reduced” and the “IEx/IMon ratio (membrane fluidity)” value [2] was “inhibitory at the highest concentration”.

CC(C)C[C@H](NC(=O)[C@H](C)NC(=O)[C@H](CC(N)=O)NC(=O)[C@@H](N)CCCNC(=N)N)C(=O)O [S-3, RNAL] (H-RNAL-OH; N-terminus and C-terminus assumed) was tested, and the “plaque area / plaque growth” value ([1]; 4 weeks) was “significantly reduced”, the “intimal to medial thickness ratios” value ([1]; 4 weeks) was “trend towards reduction” and the “mononuclear cell counts, adventitial layer” value [1] was “reduced”. For the same molecule, the “inhibition of PAI-1” value (PAI-1) was “trend toward greater inhibition of PAI-1 than S-2 and S-5”, the “CD11b+ mononuclear splenocyte cell isolates” value [3] was “trend toward reduced CD11b percentage” and the “IEx/IMon ratio (membrane fluidity)” value [2] was “inhibitory at the highest concentration”.

B1: Serp-1: secreted myxomavirus-derived protein (serpin) that binds and inhibits uPA, tPA, plasmin and factor X (protein)
chain: RDIGLWTFRYVYNESDNVVFSPYGLTSALSVLRIAAGGNTKREIDVPESVVEDSDAFLALRELFVDASVPLRPEFTAEFSSRFNTSVQRVTFNSENVKDVINSYVKDKTGGDVPRVLDASLDRDTKMLLLSSVRMKTSWRHVFDPSFTTDQPFYSGNVTYKVRMMNKIDTLKTETFTLRNVGYSVTELPYKRRQTAMLLVVPDDLGEIVRALDLSLVRFWIRNMRKDVCQVVMPKFSVESVLDLRDALQRLGVRDAFDPSRADFGQASPSNDLYVTKVLQTSKIEADERGTTASSDTAITLIPRNALTAIVANKPFMFLIYHKPTTTVLFMGTITKGEKVIYDTEGRDDVVSSV
For B1, the “increase of expression for four genes (CD162, GYS, CDKN1, BRCA1)” value (THP-1 monocytes) was “at least 2 fold”.

— patent publication US10550172B2, “Serpin reactive center loop peptides and methods of use” (University of Florida Research Foundation, Incorporated, priority 2015, dated 2020)
